Here are results for one molecule from paper PMC4546648.

The target of the test is His-tagged PLCγ1 cSH2 domain, purified from E. coli (UniProt P19174). The test is described as follows: pull-down; His-tagged cSH2 domains on Ni beads incubated overnight at 4°C with pre-cleared HEK293T lysate; western blot for endogenous PLCγ1; only the target purified.

No constants are given. Whether binding was seen depends on the method and setting. Binding seen in cells or lysates may run through a third protein. Binding can be weak; no strength is given.

B1: PLCγ1, endogenous in HEK293T cells (enzyme, UniProt P19174 1-1290)
chain: MAGAASPCANGCGPGAPSDAEVLHLCRSLEVGTVMTLFYSKKSQRPERKTFQVKLETRQITWSRGADKIEGAIDIREIKEIRPGKTSRDFDRYQEDPAFRPDQSHCFVILYGMEFRLKTLSLQATSEDEVNMWIKGLTWLMEDTLQAPTPLQIERWLRKQFYSVDRNREDRISAKDLKNMLSQVNYRVPNMRFLRERLTDLEQRSGDITYGQFAQLYRSLMYSAQKTMDLPFLEASTLRAGERPELCRVSLPEFQQFLLDYQGELWAVDRLQVQEFMLSFLRDPLREIEEPYFFLDEFVTFLFSKENSVWNSQLDAVCPDTMNNPLSHYWISSSHNTYLTGDQFSSESSLEAYARCLRMGCRCIELDCWDGPDGMPVIYHGHTLTTKIKFSDVLHTIKEHAFVASEYPVILSIEDHCSIAQQRNMAQYFKKVLGDTLLTKPVEISADGLPSPNQLKRKILIKHKKLAEGSAYEEVPTSMMYSENDISNSIKNGILYLEDPVNHEWYPHYFVLTSSKIYYSEETSSDQGNEDEEEPKEVSSSTELHSNEKWFHGKLGAGRDGRHIAERLLTEYCIETGAPDGSFLVRESETFVGDYTLSFWRNGKVQHCRIHSRQDAGTPKFFLTDNLVFDSLYDLITHYQQVPLRCNEFEMRLSEPVPQTNAHESKEWYHASLTRAQAEHMLMRVPRDGAFLVRKRNEPNSYAISFRAEGKIKHCRVQQEGQTVMLGNSEFDSLVDLISYYEKHPLYRKMKLRYPINEEALEKIGTAEPDYGALYEGRNPGFYVEANPMPTFKCAVKALFDYKAQREDELTFIKSAIIQNVEKQEGGWWRGDYGGKKQLWFPSNYVEEMVNPVALEPEREHLDENSPLGDLLRGVLDVPACQIAIRPEGKNNRLFVFSISMASVAHWSLDVAADSQEELQDWVKKIREVAQTADARLTEGKIMERRKKIALELSELVVYCRPVPFDEEKIGTERACYRDMSSFPETKAEKYVNKAKGKKFLQYNRLQLSRIYPKGQRLDSSNYDPLPMWICGSQLVALNFQTPDKPMQMNQALFMTGRHCGYVLQPSTMRDEAFDPFDKSSLRGLEPCAISIEVLGARHLPKNGRGIVCPFVEIEVAGAEYDSTKQKTEFVVDNGLNPVWPAKPFHFQISNPEFAFLRFVVYEEDMFSDQNFLAQATFPVKGLKTGYRAVPLKNNYSEDLELASLLIKIDIFPAKENGDLSPFSGTSLRERGSDASGQLFHGRAREGSFESRYQQPFEDFRISQEHLADHFDSRERRAPRRTRVNGDNRL
On to B1, for which the binding entry is “binds”.
